## Percent effect of library compounds

Data taken from ChEMBL document CHEMBL3988442, “University of Dundee, Small-Polar-MMV Screening Library” (2021).

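Whole-cell growth test on Mycobacterium tuberculosis, read after 4 days in a medium based on cholesterol and the lipid DPPC; the read-out is not stated. Compounds at 50 µM. Higher reads as more growth inhibition (inferred: compounds with an IC50 in retests scored well above the rest). Size under these conditions: about 69,000 compounds, about 370 of them at 50% or above in at least one test.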

Results are given as percent effect.
The record does not define 0% and 100%; most values in the screen are far below 50% and negative numbers occur (in some assays of this library far below -100).
The compounds are a random part of those screened.
Two or more numbers in one place are separate tests of the same structure; such repeats can differ widely.

SMILES	effect
O=C(Cn1ccc2ccc(Cl)cc21)/N=c1\[nH]nc(C2CCCO2)s1 (stereo not shown)	-13.98
CN1CCN(c2cccc(NC(=O)NCc3csc(N(C)C)n3)c2)C1=O	-3.102
O=C(O)C(F)(F)F.[H][C@@]12CCN(CCOC)C(=O)[C@@]1([H])CN(Cc1ccc(C)s1)C2	-2.151
COc1c(C2CCCN2c2ncnc3ccsc23)c(C)nn1C (stereo not shown)	-0.7389
CC[C@H](C)[C@H](NC(=O)Cc1csc(-c2cccc(Cl)c2)n1)C(=O)O	-5.213
CCCn1cnc2c1CN(S(=O)(=O)Cc1ccccc1)[C@H](C(=O)OC)C2	-19.74
Cc1cc(C)n(CC2CCCCN2C(=O)c2cnn(C)c2)n1 (stereo not shown)	-6.748
CCC(c1ccccc1)N1CCN(C(=O)c2cc(C(N)=O)c[nH]2)CC1 (stereo not shown)	7.603
Cc1noc(-c2cccnc2N2CCN(c3cnn(C)c3)CC2)n1	-4.107
O=C(O)C(F)(F)F.O=C(O)C(F)(F)F.[H][C@@]12C[C@H](C(=O)Nc3cccnc3)[C@@]([H])(CN(CCC(C)C)C1)O2	9.824 and 2.489
CS(=O)(=O)N1CCCC12CCCN(S(=O)(=O)c1cccc(F)c1)C2 (stereo not shown)	0.4912
O=c1[nH]c(NCCCO)nc2c1C1(CCCC1)Cc1ccccc1-2	-4.91
COc1ccc(CNC(=O)c2ccc(=O)n(C)c2)cc1C	-10.46
CC(CNC(=O)c1c[nH]nn1)Oc1ccccc1Br (stereo not shown)	9.18 and 7.025
COc1ccc(CNCc2c(C)nc3sc(C)cn23)c(OC)c1OC	-9.703
CCc1cnc(NCC(CC)N2CCOCC2)nc1 (stereo not shown)	-3.032 and -8.934
COc1cccc(S(=O)(=O)N2CCC(O)(CN(C)C)C2)c1 (stereo not shown)	-5.731
CN(CCO)Cc1cc(=O)n2cc(Br)ccc2n1	10.19 and -9.542
CCCN(CCc1ccccn1)C(=O)CCc1cnn(C)c1	3.751
CN(CC1CCCCO1)c1nc2c(cc1C(N)=O)CCC2 (stereo not shown)	18.85
CC(=O)N1CC(=O)N(c2cnn(C)c2)CC12CCN(Cc1ccsc1)C2.O=C(O)C(F)(F)F.O=C(O)C(F)(F)F (stereo not shown)	-3.216 and -27.67
[H][C@@]12C[C@@H](C(=O)Nc3cnccn3)CN(S(C)(=O)=O)[C@]1([H])CCO2	1.171
CCOc1ccnc(N2CCN(C(=O)c3ccc(C#N)cc3)CC2)n1	12.41
Cc1cnn(CC2CCCN2Cc2cn3ccsc3n2)c1 (stereo not shown)	13.22
N#CC1(C(=O)N2CCOC(c3ccc(Cl)cc3)C2)CCCC1 (stereo not shown)	-0.5203
CC(C)c1ncc2c(n1)CN(Cc1cccc3c1OCCO3)CC2	-12.66
Cc1noc(CCCC(=O)N2CSCC2C(=O)NCC2CC2)n1 (stereo not shown)	-5.528
CC(C)c1ccc(/C=C/CC(=O)NC2CCN(C(N)=O)C2)cc1 (stereo not shown)	4.382
CCC(CO)N(Cc1ccsc1)Cc1ccc(-c2ccn[nH]2)s1 (stereo not shown)	10.18
COc1ccc(F)cc1-c1ccccc1CC1(C(=O)O)CCOCC1	-1.93
CCc1cnc(COc2ccc(OC3CCCCNC3=O)cc2)o1 (stereo not shown)	12.44
Cc1cc(C(=O)NCCN2CCN(S(C)(=O)=O)CC2)no1.Cl	5.71
NC(=O)c1nc2c(s1)CCN(C(=O)Nc1cccc(Cl)c1)CC2	17.76
CCN(CC(=O)NC(C)C)S(=O)(=O)N1CCCCC1C (stereo not shown)	-12.54
O=C(NS(=O)(=O)Cc1cc(-c2ccccc2)no1)C1CCOCC1	4.027
[H][C@]12CC[C@]([H])(CN(C(=O)c3ccncc3)C1)N(C(=O)c1csc(C)c1)C2	11.75 and -5.15
COC1(CNC(=O)c2ccc(F)c(F)c2)CCSC1 (stereo not shown)	15.05
CCN(C)CC1CCN(C(=O)NCCC2Cc3ccccc3C2)C1 (stereo not shown)	5.36
Cc1nc(CNC(=O)NCC(O)c2ccccc2)cs1 (stereo not shown)	11.16
CCc1n[nH]c(C2CN(C(=O)c3cnc(C)s3)CCO2)n1 (stereo not shown)	11.07
O=C(C1CCCC1)N1CCC(Nc2ccncn2)CC1	2.974
Cc1ccc(CN2Cc3c(C(=O)N4CCCC4)nn(C)c3C2)s1.O=C(O)C(F)(F)F	-23.41
[H][C@@]12CNC(=O)[C@H](C)[C@]1([H])CN(Cc1ccccc1)C2	5.387
O=C(O)C(F)(F)F.O=C(O)C(F)(F)F.c1cnc(N2CCC3(CCN(CC4CCOCC4)CC3)C2)nc1	-7.222
CCC(C)N(Cc1cccnc1)C(=O)c1ncccc1O (stereo not shown)	10.65
c1cnc(N2CCOCC3(CCN(c4cnccn4)CC3)C2)nc1	-29.27
[H][C@@]12CS(=O)(=O)C[C@]1([H])N(C(=O)Cc1ccc(F)c(C)c1)CCN2C	-23.57
Cc1cc(C(=O)NCC(O)c2ccc(Cl)s2)c(C)o1 (stereo not shown)	1.62
OC(COCc1ccccc1F)CN1CCC(Cn2cccn2)CC1 (stereo not shown)	12.8
Cc1ccc(NC(=O)[C@H]2C[C@H](C(=O)O)CN(CC(C)C)C2)cn1	-0.8414
CCOC(=O)N1CCC2(CCNC2)C1.Cl (stereo not shown)	-7.463

The first 4 entries again:

SMILES,effect
O=C(Cn1ccc2ccc(Cl)cc21)/N=c1\[nH]nc(C2CCCO2)s1 (stereo not shown),-13.98
CN1CCN(c2cccc(NC(=O)NCc3csc(N(C)C)n3)c2)C1=O,-3.102
O=C(O)C(F)(F)F.[H][C@@]12CCN(CCOC)C(=O)[C@@]1([H])CN(Cc1ccc(C)s1)C2,-2.151
COc1c(C2CCCN2c2ncnc3ccsc23)c(C)nn1C (stereo not shown),-0.7389